Measurements reported in patent publication US10858339B2, “Aryl cyclopropyl-amino-isoquinolinyl amide compounds” (priority 2017, dated 2020).

Target: Rho Kinase
Experiment: ROCK kinase inhibition assay (Rho Kinase Activity, isoform not given)
Assay type: biochemical
[1] = read-out: Rho Kinase Activity, Table 15, mostly given as ranges, tested form: 2HCl

For `O=C(Nc1ccc2cnccc2c1)[C@@H]1C[C@H]1c1ccc(S(=O)(=O)NC[C@H]2CCCNC2)cc1`, the Ki [1] was 2 to 4.5 nM.
`O=C(Nc1ccc2cnccc2c1)[C@@H]1C[C@H]1c1ccc(S(=O)(=O)NC2CCNCC2)cc1` (relative stereo) gave a Ki [1] of 5 to 9.5 nM.
With `O=C(Nc1ccc2cnccc2c1)[C@@H]1C[C@H]1c1ccc(S(=O)(=O)NCc2cccnc2)cc1` (relative stereo) the Ki (read-out: Rho Kinase Activity, Table 15, mostly given as ranges) was 8 to 35 nM.

Read-outs that look alike come from different tables or passages of the source. The match of structure and compound is tentative.
